PubChem BioAssay AID1259308 – NCATS | 2017
Shown is a random part of about 59,000 deposited reagents. About 1,510 of all reagents (2.6%) count as active. 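Calls use total luciferase alone and ignore viability, so some active siRNAs may act by altering cell number.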 Reagents against one gene are numbered here. Further read-outs or replicates are left out here. Reagent sequences are not shown.

- Purpose: 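Candidate targets for better recombinant protein yield in mammalian cells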 (primary screen)
- Cell system: human HEK293 embryonic kidney cells stably expressing firefly luciferase (HEK-CMV-Luc2-Hygro)
- Reagent: single siRNA against human genes, 0.8 pmol siRNA per well
- Timing: 72 h
- Measurement: 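Luciferase light (ONE-Glo) measured on one replicate plate set and viability (CellTiter-Glo) on the other, scaled to a negative control siRNA, with robust z-scores and luciferase per cell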
- Scale: total luciferase, z-score: higher = more reporter protein produced
- Active means: 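Active when the median/MAD z-score for overall luciferase is greater than 3; a gene was taken forward for validation with new siRNAs if at least two of its three siRNAs passed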
- Calls: active = raised luciferase; inactive = no rise

total luciferase, z-score, by gene and reagent
SOAT1 (sterol O-acyltransferase 1): #1 0.025 inactive; #2 -0.0521 inactive; #3 0.148 inactive
DNASE1L1 (deoxyribonuclease 1 like 1): #1 0.519 inactive; #2 -0.693 inactive; #3 2.82 inactive
BMP8A (bone morphogenetic protein 8a): #1 -0.73 inactive; #2 -0.078 inactive; #3 0.189 inactive
SLC35A4: #1 1.16 inactive; #2 -0.17 inactive; #3 1.39 inactive
SNX15 (sorting nexin 15): #1 -0.602 inactive; #2 2.27 inactive; #3 1.45 inactive
BPIFA2 (BPI fold containing family A member 2): #1 0.223 inactive; #2 0.134 inactive; #3 3.12 active
COL14A1 (collagen type XIV alpha 1 chain): #1 0.0695 inactive; #2 1.85 inactive; #3 -0.513 inactive
IGFBP3 (insulin like growth factor binding protein 3): #1 0.834 inactive; #2 0.398 inactive; #3 -0.0601 inactive

Copied from above for reference:
total luciferase, z-score, by gene and reagent
SNX15 (sorting nexin 15): #1 -0.602 inactive; #2 2.27 inactive; #3 1.45 inactive
BPIFA2 (BPI fold containing family A member 2): #1 0.223 inactive

More results:
total luciferase, z-score, by gene and reagent
B3GALT9 (beta-1,3-galactosyltransferase 9): #1 -0.459 inactive; #2 -0.215 inactive; #3 -0.44 inactive
UTS2B (urotensin 2B): #1 -0.0526 inactive; #2 -0.256 inactive; #3 0.0911 inactive
RPS28P6 (ribosomal protein S28 pseudogene 6): #1 -1.13 inactive; #2 0.0705 inactive; #3 -1.39 inactive
PASD1 (PAS domain containing repressor 1): #1 1.28 inactive; #2 0.0694 inactive; #3 0.222 inactive
EIF4G1 (eukaryotic translation initiation factor 4 gamma 1): #1 -1.63 inactive; #2 0.0751 inactive; #3 -0.509 inactive
XKRY (XK related, Y-linked (pseudogene)): #1 0.196 inactive; #2 0.325 inactive; #3 -0.0713 inactive
LINC00851 (long independently transcribed non-coding RNA 851): #1 -1.16 inactive; #2 -0.233 inactive; #3 -2.44 inactive
CFHR5 (complement factor H related 5): #1 -0.0533 inactive; #2 1.08 inactive; #3 -0.797 inactive
CARD6 (caspase recruitment domain family member 6): #1 -0.608 inactive; #2 -0.672 inactive; #3 -0.329 inactive
HERC3 (HECT and RLD domain containing E3 ubiquitin protein ligase 3): #1 -0.767 inactive; #2 -1.96 inactive; #3 -0.575 inactive
CADM2 (cell adhesion molecule 2): #1 -0.609 inactive; #2 1.84 inactive; #3 0.922 inactive
